In the supplement of paper PMC10470496:
Counter-ions that a name gives are not always drawn. The list shows a part of the results. Repeats are few or missing, and single values can be far off.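 Three clinical Candida auris isolates (clades III, IV and I) from the CDC resistance isolate bank were grown in RPMI-1640 at 35°C. Growth was background-corrected OD600 relative to same-plate vehicle-only wells. Hits required over 50% inhibition in at least two strains and a plate-corrected B-score above 0.1.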

What was measured:
Assay in all cases: growth relative to vehicle control (OD600 ratio) (fraction); higher = less inhibition
Details in all cases: 24 h
[1] = system: C. auris AR-384
[2] = system: C. auris AR-386
[3] = system: C. auris AR-387

Structure (SMILES)	growth ([1]; 1 µM)	growth ([1]; 10 µM)	growth ([2]; 1 µM)	growth ([2]; 10 µM)	growth ([3]; 1 µM)	growth ([3]; 10 µM)
CCCCCCCCCCCCCCCC(=O)O[C@@H]1[C@@H](O)[C@@H](O)[C@@H]([C@H](NC(=O)[C@@H]2C[C@@H](CCC)CN2C)[C@H](C)Cl)O[C@@H]1SC [Clindamycin palmitate HCl]	1.09	1.09	1.45	0.97	1.3	1.5
COC(=O)C1=C(C)NC(C)=C(C(=O)OCCN(C)Cc2ccccc2)C1c1cccc([N+](=O)[O-])c1 (stereo not drawn) [Nicardipine HCl]	0.85	1.04	1.11	1.34	0.94	1.22
CN[C@@H]1[C@@H](O)[C@@H](O[C@@H]2[C@@H](O)[C@H](O[C@H]3O[C@H](CN)[C@@H](O)[C@H](O)[C@H]3O)[C@@H](N)C[C@H]2NC(=O)[C@@H](O)CN)OC[C@]1(C)O [Isepamicin Sulphate]	0.89	0.73	0.51	0.68	0.63	0.83
CCCCCOc1ccc(-c2cc(-c3ccc(C(=O)N[C@H]4C[C@@H](O)[C@@H](O)NC(=O)[C@@H]5[C@@H](O)[C@@H](C)CN5C(=O)[C@H]([C@H](O)CC(N)=O)NC(=O)[C@H]([C@H](O)[C@@H](O)c5ccc(O)c(OS(=O)(=O)O)c5)NC(=O)[C@@H]5C[C@@H](O)CN5C(=O)[C@H]([C@@H](C)O)NC4=O)cc3)no2)cc1 [Micafungin Sodium]	0.45	0.49	0.08	0.08	0	0.12
Cc1c(-c2ccc(O)cc2)n(Cc2ccc(OCCN3CCCCCC3)cc2)c2ccc(O)cc12 [Bazedoxifene HCl]	0.66	0.84	0.85	0.87	0.73	0.97
CC(NCCc1ccc(O)cc1)C(O)c1ccc(O)cc1 (stereo not drawn) [Ritodrine HCl]	0.82	1.23	1.21	1.05	0.9	0.74
COc1ccc(Cl)c(Nc2nc3ccccc3nc2NS(=O)(=O)c2cccc(NC(=O)C(C)(C)N)c2)c1 [Pilaralisib (XL147)]	0.86	0.79	0.71	0.9	0.71	1.17
CN(C(=O)c1ccc(F)cc1C(F)(F)F)C1CCN(c2nnc(-c3ccnn3C)c3ccccc23)CC1	0.87	0.66	0.94	0.64	0.79	0.68
O=c1ccc2ccc(OCCCCN3CCN(c4cccc5sccc45)CC3)cc2[nH]1 [Brexpiprazole]	0.93	0.95	0.71	0.93	0.97	1.15
CCCc1cc(C(N)=S)ccn1 [Protionamide]	1.57	1.14	1.01	1.09	1.01	0.93
CC(C)(CO)C(O)C(=O)NCCC(=O)O [Calcium D-Panthotenate]	1.06	1.03	1.17	1.05	1.01	1.07
COc1cc(Nc2ncc3c(n2)-c2ccc(Cl)cc2C(c2c(F)cccc2OC)=NC3)ccc1C(=O)O [Alisertib (MLN8237)]	1.01	0.78	1.18	0.96	0.78	0.96
CC(C)(O)c1ccccc1CC[C@@H](SCC1(CC(=O)O)CC1)c1cccc(/C=C/c2ccc3ccc(Cl)cc3n2)c1 [Montelukast Sodium]	1.26	0.87	0.69	0.75	0.83	0.82
CCC(C)n1ncn(-c2ccc(N3CCN(c4ccc(OCC5COC(Cn6cncn6)(c6ccc(Cl)cc6Cl)O5)cc4)CC3)cc2)c1=O (stereo not drawn) [Itraconazole]	0.45	0.39	0.24	0.01	0.02	0.01
O=C(N/N=C/c1ccc([N+](=O)[O-])o1)c1ccc(O)cc1 [Nifuroxazide]	0.95	1	0.71	1.2	1.02	1.15
O=C1c2cccc3c2[C@H](CCC3)CN1[C@@H]1CN2CCC1CC2 [Palonosetron HCl]	0.78	0.65	1.07	0.69	0.63	0.76
C[C@]1(Cn2ccnn2)[C@H](C(=O)O)N2C(=O)C[C@H]2S1(=O)=O [Tazobactam]	1.04	0.89	0.91	0.66	0.73	0.69
CCN1CCCC1CNC(=O)c1cc(S(=O)(=O)CC)c(N)cc1OC (stereo not drawn) [Amisulpride]	0.81	0.88	1	0.67	0.88	0.98
CN1CCN(c2c(F)cc3c(=O)c(C(=O)O)cn4c3c2OCN4C)CC1 [Marbofloxacin]	0.71	0.8	0.94	0.77	0.82	0.66

Structure (SMILES)	growth ([1]; 1 µM)	growth ([1]; 10 µM)	growth ([2]; 1 µM)	growth ([2]; 10 µM)	growth ([3]; 1 µM)	growth ([3]; 10 µM)
CC(C)(C)c1ccc(C(=O)CCCN2CCC(OC(c3ccccc3)c3ccccc3)CC2)cc1 [Ebastine]	0.87	0.92	0.92	0.75	0.8	0.79
CCOC(=O)Nc1ccc(NCc2ccc(F)cc2)nc1N [Flupirtine maleate]	1.1	0.74	0.8	0.86	1.16	0.95
CCCCC(=O)O[C@]1(C(=O)CO)[C@@H](C)C[C@H]2[C@@H]3CCC4=CC(=O)C=C[C@]4(C)[C@@]3(F)[C@@H](O)C[C@@]21C [Betamethasone Valerate]	0.98	0.93	0.92	0.62	0.83	0.75
CCOc1ccc2nc3cc(N)ccc3c(N)c2c1 [Ethacridine lactate monohydrate]	0.94	0.97	0.73	0.62	0.72	0.7
CCCN[C@H]1CCc2nc(N)sc2C1 [Pramipexole 2HCl Monohydrate]	0.68	0.78	0.98	0.71	0.91	0.72
NC(=O)N1c2ccccc2CC(=O)c2ccccc21 [Oxcarbazepine]	0.81	1.14	1.19	1.05	0.95	1.28
NCc1ccc(S(N)(=O)=O)cc1 [Mafenide Acetate]	1.26	1.56	1.34	1.26	1.35	1.2
Cn1ncc(Cl)c1-c1cc(C(=O)N[C@H](CN)Cc2cccc(F)c2)sc1Cl	1.09	0.8	0.9	1.02	0.79	1.24
CNC(=O)c1ccc2cc([C@@]3(O)CCn4cncc43)ccc2c1 [TAK-700 (Orteronel)]	1.56	1.2	1.02	0.92	0.8	0.64
CCN[C@H]1CN(CCCOC)S(=O)(=O)c2sc(S(N)(=O)=O)cc21 [Brinzolamide]	0.83	0.65	0.43	0.72	0.64	0.76
CCCCCCCCOc1ccccc1C(=O)Nc1ccc(C(=O)OCC[N+](C)(CC)CC)cc1 [Otilonium Bromide]	0.96	1.32	1.16	0.6	0.69	0.96
COc1ccccc1OCC(O)CO (stereo not drawn) [Guaifenesin]	1.03	0.84	0.94	0.86	1.01	0.94
C[C@H](NC(=O)C(=O)Nc1ccccc1C(C)(C)C)C(=O)N[C@@H](CC(=O)O)C(=O)COc1c(F)c(F)cc(F)c1F [Emricasan]	0.99	0.72	0.77	0.7	0.78	0.75
CN(C)[C@@H]1C(O)=C(C(N)=O)C(=O)[C@@]2(O)C(O)=C3C(=O)c4c(O)ccc(Cl)c4[C@@H](O)[C@H]3C[C@@H]12 [Demeclocycline HCl]	0.92	0.7	0.67	0.61	0.76	0.98
Nc1ccccc1NC(=O)c1ccc(CNC(=O)OCc2cccnc2)cc1 [Entinostat (MS-275)]	0.75	0.63	0.65	0.79	0.95	0.84
Nc1nc(Cl)nc2c1ncn2[C@H]1C[C@H](O)[C@@H](CO)O1 [Cladribine]	0.74	0.75	0.71	0.95	0.82	0.94
NCC[C@H](O)C(=O)N[C@@H]1C[C@H](N)[C@@H](O[C@H]2O[C@H](CN)[C@@H](O)[C@H](O)[C@H]2O)[C@H](O)[C@H]1O[C@H]1O[C@H](CO)[C@@H](O)[C@H](N)[C@H]1O [Amikacin hydrate]	1.19	1.32	1.04	0.98	0.82	1.3
COc1ccccc1OCCNCC(O)COc1cccc2[nH]c3ccccc3c12 (stereo not drawn) [Carvedilol]	0.76	0.92	0.91	1	0.95	0.94
O=C(NC1CCN(CCCCC2(C(=O)NCC(F)(F)F)c3ccccc3-c3ccccc32)CC1)c1ccccc1-c1ccc(C(F)(F)F)cc1 [Lomitapide]	1.04	1.37	0.85	1.07	0.88	1.04

Complete entries, quoted from the list. Values in the order: growth ([1]; 1 µM)	growth ([1]; 10 µM)	growth ([2]; 1 µM)	growth ([2]; 10 µM)	growth ([3]; 1 µM)	growth ([3]; 10 µM)
O=C(NC1CCN(CCCCC2(C(=O)NCC(F)(F)F)c3ccccc3-c3ccccc32)CC1)c1ccccc1-c1ccc(C(F)(F)F)cc1 [Lomitapide] in the list: 1.04	1.37	0.85	1.07	0.88	1.04
C[C@H](NC(=O)C(=O)Nc1ccccc1C(C)(C)C)C(=O)N[C@@H](CC(=O)O)C(=O)COc1c(F)c(F)cc(F)c1F [Emricasan] in the list: 0.99	0.72	0.77	0.7	0.78	0.75
Nc1nc(Cl)nc2c1ncn2[C@H]1C[C@H](O)[C@@H](CO)O1 [Cladribine] in the list: 0.74	0.75	0.71	0.95	0.82	0.94
